{"sequences": {"note": "Chains of the proteins cited; added tags and fusions are not shown.", "UniProt Q0JBA9, entry or part of it": "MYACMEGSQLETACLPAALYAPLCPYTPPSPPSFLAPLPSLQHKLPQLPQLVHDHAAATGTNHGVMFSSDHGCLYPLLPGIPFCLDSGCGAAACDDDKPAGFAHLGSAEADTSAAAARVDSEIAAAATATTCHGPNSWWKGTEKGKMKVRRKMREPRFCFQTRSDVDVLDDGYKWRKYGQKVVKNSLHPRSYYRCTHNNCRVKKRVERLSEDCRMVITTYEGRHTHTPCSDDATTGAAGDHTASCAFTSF"}, "source": "paper PMC7819943", "about": "“Rice protein-binding microarrays: a tool to detect cis-acting elements near promoter regions in rice”", "note": "Some of the results follow."}
{"molecular_target": "OsWRKY34 (Oryza sativa, UniProt Q0JBA9 1-250)", "experiment": "protein-binding microarray (RPBM); PBS, 2% BSA, 51.3 ng/ul salmon testes DNA, 50 uM zinc acetate, 200 nM TF, 25 C, 1 h; high values mean tight binding", "details": "protein: recombinant; tags: N-terminal polyhistidine and DsRed monomer fusion (pET32a); label: CyDye5-dUTP incorporated in the synthesized complementary strand; 3' TTTTT single-stranded linker to array surface; dsDNA, one strand shown", "summary_of_the_method": "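In PBS with 2% BSA, salmon testes DNA and 50 µM zinc acetate, 200 nM protein was incubated on a custom Agilent array at 25 °C for 1 h and then washed off. The array had been made double-stranded by primer extension with Cy5-dUTP and blocked with 2% BSA. The proteins were transcription factors fused N-terminally to polyhistidine and DsRed, expressed in E. coli BL21-CodonPlus and purified on Ni–NTA. The binding signal is per-feature fluorescence intensity (arbitrary units) from an Axon 4000B scanner.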"}
{"sequence": "TTGTAATCTACTTTTGTCCCGCTTCAAAACCTTGAAATTTCGGAGTCACCTAGTGCAG", "binding signal": "9710 fluorescence intensity (a.u.)"}
{"sequence": "TAGTATACTCCTTTCGTACGCACACCCCTGCATTCTGCTACGGAGTCACCTAGTGCAG", "binding signal": "9030 fluorescence intensity (a.u.)"}
{"sequence": "CATGTCTATCTTTCTACTATTTATTTTTTTTTGGCAGAGACGGAGTCACCTAGTGCAG", "binding signal": "12700 fluorescence intensity (a.u.)"}
{"sequence": "GCCCATAGTACGTTTTCCTGGTATGCTGACTTTTTTTTAGCGGAGTCACCTAGTGCAG", "binding signal": "10800 fluorescence intensity (a.u.)"}
{"sequence": "GATCCTTCAACACTGTAAACCGTGATTTAGATGCCCATTCCGGAGTCACCTAGTGCAG", "binding signal": "9040 fluorescence intensity (a.u.)"}
{"sequence": "CCCACGTGACCGCCGCCGCCGCCATCGCGGCCGTCCAATACGGAGTCACCTAGTGCAG", "binding signal": "9690 fluorescence intensity (a.u.)"}
{"sequence": "GTTCCTCGTTCTTAACTCAAAATTTTAACTTTTTCGTTTTCGGAGTCACCTAGTGCAG", "binding signal": "10700 fluorescence intensity (a.u.)"}
{"sequence": "CGAACGGTCAAACATATTTAAAAAAGTCAACGGCGTCAAACGGAGTCACCTAGTGCAG", "binding signal": "9090 fluorescence intensity (a.u.)"}
{"sequence": "CCAGATCCAAGCGTCCATCGCCGCGGCCGCATCCGCCATGCGGAGTCACCTAGTGCAG", "binding signal": "8060 fluorescence intensity (a.u.)"}
{"sequence": "CACCCAAATATCTTCAGCTCATCGCTCGCCACGTGTCCACCGGAGTCACCTAGTGCAG", "binding signal": "10000 fluorescence intensity (a.u.)"}
{"sequence": "GGCCGTTTCGTTGGCTGCTGCACATGGCCTCGCCTTGCTTCGGAGTCACCTAGTGCAG", "binding signal": "8530 fluorescence intensity (a.u.)"}
{"sequence": "CTCTTTCCACACATCATATTTATTTGTCTCTTTTTTGAAACGGAGTCACCTAGTGCAG", "binding signal": "9590 fluorescence intensity (a.u.)"}
{"sequence": "AGAAAAGGAAAAGGCCGTTCGCCGTCCGTTGACCGCACGCCGGAGTCACCTAGTGCAG", "binding signal": "13000 fluorescence intensity (a.u.)"}
{"sequence": "GGGTGGCGTGGGACGTGTTTTTGTTGACCGAGCACGGTCCCGGAGTCACCTAGTGCAG", "binding signal": "11400 fluorescence intensity (a.u.)"}
{"sequence": "CTCACAGATCTCGTCTTATTTTGTATTTTCTCTCTCCATTCGGAGTCACCTAGTGCAG", "binding signal": "9440 fluorescence intensity (a.u.)"}
{"sequence": "ATAACATCCTTTTTTTTCTTCCTCTTTGTGCTCATCTAGTCGGAGTCACCTAGTGCAG", "binding signal": "9160 fluorescence intensity (a.u.)"}
{"sequence": "CAAGTTTAGTTGATGTATTTCATTTACATTTGATCTGTTCCGGAGTCACCTAGTGCAG", "binding signal": "8760 fluorescence intensity (a.u.)"}
{"sequence": "GCGTATATATATATTGCAATATCCGTCTTTTGCATTTGTTCGGAGTCACCTAGTGCAG", "binding signal": "8780 fluorescence intensity (a.u.)"}
{"sequence": "GTTTGATCGATTTTGTCTCTAATTTTAGGCAACTGGCATTCGGAGTCACCTAGTGCAG", "binding signal": "8790 fluorescence intensity (a.u.)"}
{"sequence": "GCCGAAACCCGGACACCCAATCCGCCGCAACGGCTCGCAACGGAGTCACCTAGTGCAG", "binding signal": "8320 fluorescence intensity (a.u.)"}
{"sequence": "ACTATTATTGGTGTGTCTATGGGTTTACCAGGTTCCCATTCGGAGTCACCTAGTGCAG", "binding signal": "10600 fluorescence intensity (a.u.)"}
{"sequence": "GCAATCCGTGTAATTAATTATTTTTTCGTTTATACTCTCTCGGAGTCACCTAGTGCAG", "binding signal": "10200 fluorescence intensity (a.u.)"}
{"sequence": "CGCTGCCGCCACCATCCACTCACCACCGACACCGTTCGTGCGGAGTCACCTAGTGCAG", "binding signal": "9180 fluorescence intensity (a.u.)"}
{"sequence": "ATATCTCATTCAAATTTCTCCCTATTTTACCCTCAACTATCGGAGTCACCTAGTGCAG", "binding signal": "8980 fluorescence intensity (a.u.)"}
{"sequence": "CTCCCCGACGCCGCGCTCCACCACCTCCGCCTCATCTCGCCGGAGTCACCTAGTGCAG", "binding signal": "10400 fluorescence intensity (a.u.)"}
{"sequence": "ATTTGACGGACCCACATAAATCATGATCAGCATTCTGCAACGGAGTCACCTAGTGCAG", "binding signal": "8550 fluorescence intensity (a.u.)"}
{"sequence": "AATCAGCCACCCAGCAAGACATTCCTTTCCAACCTCACTCCGGAGTCACCTAGTGCAG", "binding signal": "10100 fluorescence intensity (a.u.)"}
{"sequence": "TCCTTGACCTACTTAACCAGGCTACACCGCACCCACCACACGGAGTCACCTAGTGCAG", "binding signal": "9150 fluorescence intensity (a.u.)"}
{"sequence": "TCGTTGACTCGATGTTTTTCATTTATTTGAGTGTGTGTTTCGGAGTCACCTAGTGCAG", "binding signal": "11300 fluorescence intensity (a.u.)"}
{"sequence": "CCCGTCGCTCCTCTCGCTCGCCCTGTGGCATGTCCCTCAGCGGAGTCACCTAGTGCAG", "binding signal": "8040 fluorescence intensity (a.u.)"}
{"sequence": "GTCATGTTACATATGCACCTTTGTACTTGCTCCATCTTATCGGAGTCACCTAGTGCAG", "binding signal": "9250 fluorescence intensity (a.u.)"}
{"sequence": "ACTGCATGCCCGGTTTCCTCGTCGTCGCAAGTTACCTGTCCGGAGTCACCTAGTGCAG", "binding signal": "9570 fluorescence intensity (a.u.)"}
{"sequence": "GTCGATTGACTTTTTACTCTCTGTGTCTGTGTCTCAGTTTCGGAGTCACCTAGTGCAG", "binding signal": "11700 fluorescence intensity (a.u.)"}
{"sequence": "TTCAACGTTTTCCTAACTTTTTCTTCAAACTTTCAATTTTCGGAGTCACCTAGTGCAG", "binding signal": "9800 fluorescence intensity (a.u.)"}
{"sequence": "CAATTGCCCGCGCTGCGCGGCCCACATGTCGGTCCAATTCCGGAGTCACCTAGTGCAG", "binding signal": "8330 fluorescence intensity (a.u.)"}
{"sequence": "CAACTAAACTCTGCTTTTGATACAATTGATCGGTATATATCGGAGTCACCTAGTGCAG", "binding signal": "9030 fluorescence intensity (a.u.)"}
{"sequence": "ACATTCCATCGCACTCATTTTAGAGGACACATATTTGAATCGGAGTCACCTAGTGCAG", "binding signal": "8800 fluorescence intensity (a.u.)"}
{"sequence": "TGTTAATCATCAGTTCATCACCCACTCACCAGTCACCACCCGGAGTCACCTAGTGCAG", "binding signal": "8810 fluorescence intensity (a.u.)"}
{"sequence": "ACTCGACTTCCGCGGCACCACCTCTTCCCCTCCCCTACCTCGGAGTCACCTAGTGCAG", "binding signal": "9900 fluorescence intensity (a.u.)"}
{"sequence": "AGATGTCCTAAATCCTGCGTGCCCGGTTGATCTGCTCCCACGGAGTCACCTAGTGCAG", "binding signal": "9120 fluorescence intensity (a.u.)"}
{"sequence": "AATCACGCGCTAATAGACTATTATGTTTTCCGTATGCACTCGGAGTCACCTAGTGCAG", "binding signal": "8720 fluorescence intensity (a.u.)"}
{"sequence": "CGCTTGGTGGCGGTGGGGCATCGACTGGGCCGGCGGGTTGCGGAGTCACCTAGTGCAG", "binding signal": "8230 fluorescence intensity (a.u.)"}
